Results as given in PubChem BioAssay AID1347076 (National Center for Advancing Translational Sciences (NCATS), 2019).
In all, about 400,000 compounds went through this assay and about 13,000 (3.2%) were called active. This list was built around the results that the source calls inconclusive (neither active nor inactive); the mix of calls is not that of the screen. Calls follow the shape of the dose curve; as a rule, active = well fitted cell-killing curve with a large enough effect; inconclusive = small, poorly fitted or top-dose-only effect, or effect the other way; inactive = flat fitted curve, though single readings scatter. A potency beside an inconclusive call is a rough fit, not a confirmed value.

Assay: qHTS assay for MDR1-selective chemotherapeutics: Primary screen using the drug-selected MDR subline cells KB-V1; also: nearly all actives have a fitted effect of over 60% in size
Conditions: KB-V1 MDR cells viability, CellTiter-Glo, 72 h; activity change, negative = cytotoxicity: at 46.1 µM (top of the series)
How it was run: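 Following 72 h at 37 degrees C with compound, KB-V1 cell viability was read by CellTiter-Glo luminescence, medium being phenol-red-free DMEM plus 10% FBS; concentration-response parameters came from normalized, curve-fitted qHTS data.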
% is scaled to controls: 0 for no effect and ±100 for the full control effect; potency is read from the fitted curve at half-maximal effect.

| Compound | activity change, negative = cytotoxicity | Potency |
| --- | --- | --- |
| CCOc1ccc(S(=O)(=O)Nc2ccc(C(=O)NNC(=O)c3ccncc3)cc2)cc1 | inactive: 2.55% | – |
| O=C(NC1CCCC1)C(c1ccco1)N(C(=O)c1ccco1)c1ccc(F)cc1 (centres undefined) | – | inconclusive: 7.31 µM [cytotoxic, partial curve] |
| CC(=O)c1ccc(NC(=O)c2ccc([N+](=O)[O-])o2)cc1 | – | inconclusive: 29.1 µM [cytotoxic, single point] |
| Cc1cccc(NC(=O)C(=O)C2C(=O)Nc3ccccc32)c1 (centres undefined) | – | inconclusive: 32.6 µM [cytotoxic, single point] |
| O=C(C1CCC1)N1CCCc2cc(S(=O)(=O)N3CCN(c4cccc(Cl)c4)CC3)ccc21 | inactive: -5.25% | – |
| O=C(N/N=C/c1cc(Br)cc(Cl)c1O)c1ccc2c(c1)OCO2 | inconclusive: -30.7% [cytotoxic] | – |
| CCOC(=O)c1nn(-c2ccc(Cl)cc2C)ccc1=O | – | inconclusive: 16.4 µM [rising, single point] |
| CCOCc1nnc(NC(=O)c2cc(OC)c(OC)c(OC)c2)s1 | – | inconclusive: 23.1 µM [cytotoxic, partial curve] |
| Cc1ccc(S(=O)(=O)Oc2ccccc2/C=N/NC(=O)c2nn(C)cc2[N+](=O)[O-])cc1 | inactive: 0.268% | – |
| Cc1ccc(NC2=C(Cl)C(=O)OC2OC(=O)c2ccc(C)cc2)cc1 (centres undefined) | – | inconclusive: 5.8 µM [rising, partial curve] |
| COc1ccc(OC)c(S(=O)(=O)Nc2ccc(O)c3ccccc23)c1 | – | inconclusive: 29.1 µM [cytotoxic, single point] |
| O=C(O)CCCn1c(=S)[nH]c2c(sc3ccc([N+](=O)[O-])cc32)c1=O | – | inconclusive: 8.2 µM [rising, partial curve] |
| O=C(OCCN1CCCCC1)c1ccccc1Cl | inactive: 17.4% | – |
| Cc1ccc(CNC(C)(C)CO)cc1 | inactive: -0.482% | – |
| COc1cc(N=Cc2c(O)[nH]c3ccccc23)cc(OC)c1OC | – | active: 4.11 µM |
| CCN(CC)C(=O)COn1c(SCC(=O)N(CC)CC)nc2ccccc2c1=O | – | active: 16.4 µM |
| COc1ccc(-c2c(NC(=O)c3ccco3)oc3c(C)cccc3c2=O)cc1 | – | inconclusive: 0.326 µM [cytotoxic, full curve, poor fit] |
| COC(=O)CC1(C(=O)OC)Oc2ccc(Br)cc2C(=O)N1c1cc(Cl)cc(Cl)c1 (centres undefined) | – | inconclusive: 14.6 µM [cytotoxic, single point] |
| CCn1c(SCC(=O)NC2CCCC2)nnc1-c1ccncc1 | – | inconclusive: 29.1 µM [rising, partial curve, poor fit] |
| NS(=O)(=O)c1ccc(NC(=S)NCc2cccs2)cc1 | inactive: 1.89% | – |
| CCCc1nc(SCC(=O)N2c3ccccc3CC2C)c2c(C)c(C)sc2n1 (centres undefined) | – | inconclusive: 29.1 µM [cytotoxic, single point] |
| COc1cc(C(=O)OC2CCCCC2=O)cc(OC)c1C (centres undefined) | – | inconclusive: 23.1 µM [cytotoxic, partial curve] |

Part of the list above in order of number of heavy atoms, falling.

| Compound | activity change, negative = cytotoxicity | Potency |
| --- | --- | --- |
| Cc1ccc(S(=O)(=O)Oc2ccccc2/C=N/NC(=O)c2nn(C)cc2[N+](=O)[O-])cc1 | inactive: 0.268% | – |
| Cc1ccc(NC2=C(Cl)C(=O)OC2OC(=O)c2ccc(C)cc2)cc1 (centres undefined) | – | inconclusive: 5.8 µM [rising, partial curve] |
| CCOC(=O)c1nn(-c2ccc(Cl)cc2C)ccc1=O | – | inconclusive: 16.4 µM [rising, single point] |

The list continues.

| Compound | activity change, negative = cytotoxicity | Potency |
| --- | --- | --- |
| Nc1nonc1-n1nnc(C(=O)N/N=C/c2cccc(F)c2)c1-c1ccc2c(c1)OCO2 | – | inconclusive: 10.3 µM [rising, partial curve] |
| COCn1c(COc2ccc3ccccc3c2)nc2ccccc21 | – | inconclusive: 16.4 µM [cytotoxic, partial curve, poor fit] |
| COc1ccc(CCN2C(=O)c3[nH]nc(-c4ccccc4O)c3C2c2cccc(O)c2)cc1OC (centres undefined) | inactive: 17.1% | – |
| Cc1ccc(NC2=C(Cl)C(=O)OC2OC(C)C)c(C)c1 (centres undefined) | – | inconclusive: 23.1 µM [cytotoxic, single point] |
| COc1ccccc1CNS(=O)(=O)c1ccc(-n2cnnn2)c(C)c1 | inactive: -24.9% | – |
| Cc1onc(-c2ccccc2Cl)c1C(=O)Oc1ccc(Cl)cc1Cl | – | inconclusive: 23.1 µM [cytotoxic, partial curve, poor fit] |
| Cc1nc2ccccc2c2oc(C(=O)Nc3ccc4c(c3)OCCO4)cc12 | – | inconclusive: 23.1 µM [cytotoxic, partial curve, poor fit] |
| Nc1nc(CSC(=S)N2CCN(c3ccccc3)CC2)nc(Nc2ccc(F)cc2)n1 | – | inconclusive: 29.1 µM [cytotoxic, single point] |
| N#Cc1ccc(-n2c(-c3ccccc3)nnc2-c2ccccc2)cc1C#N | – | inconclusive: 20.6 µM [cytotoxic, single point] |
| CCCCCCc1cc2cc(C(=O)Nc3cccc(OC)c3)c(=O)oc2cc1O | – | active: 6.51 µM |
| COc1ccccc1CCn1cc(C#N)c(=O)[nH]c1=O | – | inconclusive: 18.4 µM [rising, single point] |
| O=C(N/N=C/c1cccnc1)c1cc(-c2cccs2)nc2ccccc12 | – | inconclusive: 29.1 µM [cytotoxic, single point] |
| COc1ccccc1Nc1nc(C)nc(N)c1S(=O)(=O)c1ccccc1 | inactive: -32.8% | – |
| Cc1nc(Cl)c(Cl)n1CCOc1ccccc1 | – | inconclusive: 20.6 µM [cytotoxic, single point] |
| CN1CC2(C(=O)c3ccccc3)CN(C)CC(C(=O)c3ccccc3)(C1)C2 | – | inconclusive: 18.4 µM [cytotoxic, partial curve, poor fit] |
| O=c1c2sccc2nc(SCc2ccc([N+](=O)[O-])cc2)n1Cc1ccccn1 | – | inconclusive: 29.1 µM [cytotoxic, single point] |
| Cc1ccc(-c2nnc(N3CCOCC3)c3ccccc23)cc1S(=O)(=O)N(C)C | inactive: -17.1% | – |
| O=C1NCC(Nc2ccccc2)C(=O)N1 (centres undefined) | – | inconclusive: 9.2 µM [rising, partial curve, poor fit] |
| CCOC(=O)C1(Cc2cccc(OC)c2)CCN(C/C=C/c2ccc(OC)cc2)CC1 | – | inconclusive: 10.3 µM [cytotoxic, partial curve] |
| COc1ccc(Nc2ncc(C(=O)Nc3cccc(Cl)c3)c3ccccc23)cc1 | inactive: 24.8% | – |
| CCOC(=O)C1CCCN(C(=O)c2ccc3c(c2)N(C)C(=O)/C(=C/c2ccccc2Cl)S3)C1 (centres undefined) | inconclusive: -30.1% [cytotoxic] | – |
| COC(=O)CSc1cc(SCC(=O)OC)c(C#N)c(SCC(=O)OC)c1 | – | inconclusive: 25.9 µM [rising, single point] |
